These results are taken from article PMC9842414.

Sequences of proteins named here, by UniProt entry; tags and fusion partners are left off.
UniProt Q9C030: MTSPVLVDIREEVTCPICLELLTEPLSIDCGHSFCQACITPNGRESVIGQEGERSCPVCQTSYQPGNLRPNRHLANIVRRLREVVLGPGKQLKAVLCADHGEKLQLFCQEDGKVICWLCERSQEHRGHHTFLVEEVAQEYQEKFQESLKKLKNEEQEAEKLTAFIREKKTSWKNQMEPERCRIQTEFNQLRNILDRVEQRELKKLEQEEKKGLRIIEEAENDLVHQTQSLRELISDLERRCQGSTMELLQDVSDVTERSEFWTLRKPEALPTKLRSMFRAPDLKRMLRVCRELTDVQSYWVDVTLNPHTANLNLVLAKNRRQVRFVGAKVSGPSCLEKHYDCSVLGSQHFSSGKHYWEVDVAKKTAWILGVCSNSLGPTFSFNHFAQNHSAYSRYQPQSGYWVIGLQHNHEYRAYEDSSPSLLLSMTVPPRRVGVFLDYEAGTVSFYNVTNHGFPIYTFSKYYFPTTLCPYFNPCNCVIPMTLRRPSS

No constants are given. Whether binding was seen depends on the method and setting. Binding seen in cells or lysates may run through a third protein. Some results given as binding are weak or reduced against the parent protein; the word gives no strength. For part of these data: Tags and fused reporters may be left off the sequences shown.

One assay addresses T1, HA-tagged SLC1A5 (human) (UniProt Q15758).
T1 sequence: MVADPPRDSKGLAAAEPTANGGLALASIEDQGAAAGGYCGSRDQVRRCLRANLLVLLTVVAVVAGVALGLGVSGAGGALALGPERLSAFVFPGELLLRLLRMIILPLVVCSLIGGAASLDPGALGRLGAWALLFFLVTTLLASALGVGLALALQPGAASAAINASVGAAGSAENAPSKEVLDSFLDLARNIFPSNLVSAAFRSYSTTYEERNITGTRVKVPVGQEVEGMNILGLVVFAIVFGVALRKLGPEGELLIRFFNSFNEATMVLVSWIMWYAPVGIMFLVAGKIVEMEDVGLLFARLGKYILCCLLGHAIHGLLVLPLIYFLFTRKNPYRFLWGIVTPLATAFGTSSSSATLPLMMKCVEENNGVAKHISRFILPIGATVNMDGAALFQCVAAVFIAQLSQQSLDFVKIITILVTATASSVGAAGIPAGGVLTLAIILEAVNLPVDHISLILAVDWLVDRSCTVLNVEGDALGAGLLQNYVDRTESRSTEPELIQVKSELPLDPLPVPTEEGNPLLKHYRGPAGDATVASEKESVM
Put plainly: co-IP; lysates of HEK293T cells transiently transfected with Flag-TRIM6 and HA-SLC1A5; immunoprecipitation with anti-Flag or anti-HA antibodies, immunoblot.

Assay [1] addresses Tripartite motif 6 (TRIM6), endogenous in H460 cells (human (endogenous in H460)) (UniProt Q9C030). Put plainly: co-IP; endogenous proteins in H460 lysates (IP lysis buffer); primary antibodies or IgG at 4°C overnight, Protein A/G-agarose beads at room temperature 2 h, washed 5 times, immunoblot. For orientation: In western blotting, separated proteins are transferred to a membrane and probed.

For assay [2], the target named is Flag-tagged TRIM6 (human) (UniProt Q9C030). The assay is described as follows: co-IP; lysates of HEK293T cells transiently transfected with Flag-TRIM6 and HA-SLC1A5; immunoprecipitation with anti-Flag or anti-HA antibodies, immunoblot.

Regarding “Flag-tagged TRIM6 (from UniProt Q9C030 1-488)”, the binding entry with HA-tagged SLC1A5 (human) is reported as “binds”.

B1: Solute carrier family 1 member 5 (SLC1A5), endogenous in H460 cells (protein, UniProt Q15758 1-541)
chain: MVADPPRDSKGLAAAEPTANGGLALASIEDQGAAAGGYCGSRDQVRRCLRANLLVLLTVVAVVAGVALGLGVSGAGGALALGPERLSAFVFPGELLLRLLRMIILPLVVCSLIGGAASLDPGALGRLGAWALLFFLVTTLLASALGVGLALALQPGAASAAINASVGAAGSAENAPSKEVLDSFLDLARNIFPSNLVSAAFRSYSTTYEERNITGTRVKVPVGQEVEGMNILGLVVFAIVFGVALRKLGPEGELLIRFFNSFNEATMVLVSWIMWYAPVGIMFLVAGKIVEMEDVGLLFARLGKYILCCLLGHAIHGLLVLPLIYFLFTRKNPYRFLWGIVTPLATAFGTSSSSATLPLMMKCVEENNGVAKHISRFILPIGATVNMDGAALFQCVAAVFIAQLSQQSLDFVKIITILVTATASSVGAAGIPAGGVLTLAIILEAVNLPVDHISLILAVDWLVDRSCTVLNVEGDALGAGLLQNYVDRTESRSTEPELIQVKSELPLDPLPVPTEEGNPLLKHYRGPAGDATVASEKESVM
On to B1, for which the binding result in assay [1] is “binds”.

B2: HA-tagged SLC1A5 (protein, UniProt Q15758 1-541)
chain: MVADPPRDSKGLAAAEPTANGGLALASIEDQGAAAGGYCGSRDQVRRCLRANLLVLLTVVAVVAGVALGLGVSGAGGALALGPERLSAFVFPGELLLRLLRMIILPLVVCSLIGGAASLDPGALGRLGAWALLFFLVTTLLASALGVGLALALQPGAASAAINASVGAAGSAENAPSKEVLDSFLDLARNIFPSNLVSAAFRSYSTTYEERNITGTRVKVPVGQEVEGMNILGLVVFAIVFGVALRKLGPEGELLIRFFNSFNEATMVLVSWIMWYAPVGIMFLVAGKIVEMEDVGLLFARLGKYILCCLLGHAIHGLLVLPLIYFLFTRKNPYRFLWGIVTPLATAFGTSSSSATLPLMMKCVEENNGVAKHISRFILPIGATVNMDGAALFQCVAAVFIAQLSQQSLDFVKIITILVTATASSVGAAGIPAGGVLTLAIILEAVNLPVDHISLILAVDWLVDRSCTVLNVEGDALGAGLLQNYVDRTESRSTEPELIQVKSELPLDPLPVPTEEGNPLLKHYRGPAGDATVASEKESVM
As for B2, the binding entry in assay [2] is on record as “binds”.
